Measured values from publication PMC2868851.
Construct, isoform or probe ends are uncertain for at least one entry. At least one verdict rests on a figure or table, not on a statement of the authors. For some of these results: Protein sequences can lack the tags named with them.

Assays:
Experiment in all cases: EMSA
M-EN (TRF1 Myb-TRAS1EN) = details: 0.04-1 uM protein; EMSA: 20 mM Hepes pH 7.9, 150 mM KCl, 0.1 mM EDTA, 1 mM DTT, 4% Ficoll, 5% glycerol, 0.1 mg/ml BSA, 3 ng/ul salmon sperm DNA, ~1 nM probe, 4 C, 60 min; native 5% PAGE; recombinant protein; protein details: C-terminal His; label: 5'-32P
EN-M (TRAS1EN-TRF1 Myb) = details: 0.04-1 uM protein; EMSA: 20 mM Hepes pH 7.9, 150 mM KCl, 0.1 mM EDTA, 1 mM DTT, 4% Ficoll, 5% glycerol, 0.1 mg/ml BSA, 3 ng/ul salmon sperm DNA, ~1 nM probe, 4 C, 60 min; native 5% PAGE; recombinant protein; protein details: C-terminal His; label: 5'-32P
[1] = tested on: EN-NM (TRAS1EN-TRF1 NLS-Myb); details: 0.04-1 uM protein; EMSA: 20 mM Hepes pH 7.9, 150 mM KCl, 0.1 mM EDTA, 1 mM DTT, 4% Ficoll, 5% glycerol, 0.1 mg/ml BSA, 3 ng/ul salmon sperm DNA, ~1 nM probe, 4 C, 60 min; native 5% PAGE; recombinant protein; protein details: C-terminal His; label: 5'-32P
T-EN (TRF1-TRAS1EN) = details: 0.04-1 uM protein; EMSA: 20 mM Hepes pH 7.9, 150 mM KCl, 0.1 mM EDTA, 1 mM DTT, 4% Ficoll, 5% glycerol, 0.1 mg/ml BSA, 3 ng/ul salmon sperm DNA, ~1 nM probe, 4 C, 60 min; native 5% PAGE; recombinant protein; protein details: C-terminal His; label: 5'-32P
[2] = target: TRF1 Myb domain (M) (human) (UniProt P54274); details: EMSA: 20 mM Hepes pH 7.9, 150 mM KCl, 0.1 mM EDTA, 1 mM DTT, 4% Ficoll, 5% glycerol, 0.1 mg/ml BSA, 3 ng/ul salmon sperm DNA, ~1 nM probe, 4 C, 60 min; native 5% PAGE; recombinant protein; protein details: C-terminal His; label: 5'-32P
TRF1 (T) (human) = target: T1, TRF1 (T) (human) (UniProt P54274); details: EMSA: 20 mM Hepes pH 7.9, 150 mM KCl, 0.1 mM EDTA, 1 mM DTT, 4% Ficoll, 5% glycerol, 0.1 mg/ml BSA, 3 ng/ul salmon sperm DNA, ~1 nM probe, 4 C, 60 min; native 5% PAGE; recombinant protein; protein details: C-terminal His; label: 5'-32P
T1 sequence (looked up, limits assumed): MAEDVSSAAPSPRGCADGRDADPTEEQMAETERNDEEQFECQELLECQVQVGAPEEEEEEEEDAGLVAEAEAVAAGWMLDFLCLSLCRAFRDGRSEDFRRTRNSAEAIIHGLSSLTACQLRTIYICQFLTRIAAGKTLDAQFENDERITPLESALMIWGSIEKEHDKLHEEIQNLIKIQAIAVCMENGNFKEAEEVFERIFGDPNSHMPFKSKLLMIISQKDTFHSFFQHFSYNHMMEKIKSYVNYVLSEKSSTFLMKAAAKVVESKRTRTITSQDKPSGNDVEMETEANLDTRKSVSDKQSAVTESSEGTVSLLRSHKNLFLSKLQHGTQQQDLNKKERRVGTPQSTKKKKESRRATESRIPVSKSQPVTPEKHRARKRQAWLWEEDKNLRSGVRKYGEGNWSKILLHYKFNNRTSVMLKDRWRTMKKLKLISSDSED

EN-T (TRAS1EN-TRF1) = details: 0.04-1 uM protein; EMSA: 20 mM Hepes pH 7.9, 150 mM KCl, 0.1 mM EDTA, 1 mM DTT, 4% Ficoll, 5% glycerol, 0.1 mg/ml BSA, 3 ng/ul salmon sperm DNA, ~1 nM probe, 4 C, 60 min; native 5% PAGE; recombinant protein; protein details: C-terminal His; label: 5'-32P

Measured: binding result

TTAGGGTTAGGGTTAGGGTTAGGGTTAGGG (double strand) [TR5]
binds: all assays above
